Results are given in words; binding and its absence hold for the method and conditions named. In cells and extracts the contact can be indirect. These calls come from enrichment with a bait or labelling near it, and not all partners need be listed. For part of these data: A no says only that the protein was not detected with the bait. Sequences can lack the tags named with a protein.
T1: TENT5C-EGFP (Tent5c-EGFP knock-in) (mouse (endogenous in fetal liver erythroblasts)) (UniProt Q5SSF7)
T1 sequence: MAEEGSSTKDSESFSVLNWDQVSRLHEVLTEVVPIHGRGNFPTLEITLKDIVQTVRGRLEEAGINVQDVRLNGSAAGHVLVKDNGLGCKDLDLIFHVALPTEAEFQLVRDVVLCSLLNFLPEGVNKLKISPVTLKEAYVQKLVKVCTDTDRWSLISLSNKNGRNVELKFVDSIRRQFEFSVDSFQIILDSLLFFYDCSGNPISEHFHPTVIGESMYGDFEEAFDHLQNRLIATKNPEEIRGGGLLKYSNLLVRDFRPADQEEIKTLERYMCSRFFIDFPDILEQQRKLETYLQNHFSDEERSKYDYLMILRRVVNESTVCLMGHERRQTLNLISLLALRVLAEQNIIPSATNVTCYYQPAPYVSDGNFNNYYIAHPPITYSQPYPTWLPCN

Sequences of proteins named here, by UniProt entry; tags and fusion partners are left off. A change or cut given only in a name is not applied to a line headed by its entry. A line that says so, or that is headed by a name, gives the form on record, which may keep a tag or linker.
UniProt P53995: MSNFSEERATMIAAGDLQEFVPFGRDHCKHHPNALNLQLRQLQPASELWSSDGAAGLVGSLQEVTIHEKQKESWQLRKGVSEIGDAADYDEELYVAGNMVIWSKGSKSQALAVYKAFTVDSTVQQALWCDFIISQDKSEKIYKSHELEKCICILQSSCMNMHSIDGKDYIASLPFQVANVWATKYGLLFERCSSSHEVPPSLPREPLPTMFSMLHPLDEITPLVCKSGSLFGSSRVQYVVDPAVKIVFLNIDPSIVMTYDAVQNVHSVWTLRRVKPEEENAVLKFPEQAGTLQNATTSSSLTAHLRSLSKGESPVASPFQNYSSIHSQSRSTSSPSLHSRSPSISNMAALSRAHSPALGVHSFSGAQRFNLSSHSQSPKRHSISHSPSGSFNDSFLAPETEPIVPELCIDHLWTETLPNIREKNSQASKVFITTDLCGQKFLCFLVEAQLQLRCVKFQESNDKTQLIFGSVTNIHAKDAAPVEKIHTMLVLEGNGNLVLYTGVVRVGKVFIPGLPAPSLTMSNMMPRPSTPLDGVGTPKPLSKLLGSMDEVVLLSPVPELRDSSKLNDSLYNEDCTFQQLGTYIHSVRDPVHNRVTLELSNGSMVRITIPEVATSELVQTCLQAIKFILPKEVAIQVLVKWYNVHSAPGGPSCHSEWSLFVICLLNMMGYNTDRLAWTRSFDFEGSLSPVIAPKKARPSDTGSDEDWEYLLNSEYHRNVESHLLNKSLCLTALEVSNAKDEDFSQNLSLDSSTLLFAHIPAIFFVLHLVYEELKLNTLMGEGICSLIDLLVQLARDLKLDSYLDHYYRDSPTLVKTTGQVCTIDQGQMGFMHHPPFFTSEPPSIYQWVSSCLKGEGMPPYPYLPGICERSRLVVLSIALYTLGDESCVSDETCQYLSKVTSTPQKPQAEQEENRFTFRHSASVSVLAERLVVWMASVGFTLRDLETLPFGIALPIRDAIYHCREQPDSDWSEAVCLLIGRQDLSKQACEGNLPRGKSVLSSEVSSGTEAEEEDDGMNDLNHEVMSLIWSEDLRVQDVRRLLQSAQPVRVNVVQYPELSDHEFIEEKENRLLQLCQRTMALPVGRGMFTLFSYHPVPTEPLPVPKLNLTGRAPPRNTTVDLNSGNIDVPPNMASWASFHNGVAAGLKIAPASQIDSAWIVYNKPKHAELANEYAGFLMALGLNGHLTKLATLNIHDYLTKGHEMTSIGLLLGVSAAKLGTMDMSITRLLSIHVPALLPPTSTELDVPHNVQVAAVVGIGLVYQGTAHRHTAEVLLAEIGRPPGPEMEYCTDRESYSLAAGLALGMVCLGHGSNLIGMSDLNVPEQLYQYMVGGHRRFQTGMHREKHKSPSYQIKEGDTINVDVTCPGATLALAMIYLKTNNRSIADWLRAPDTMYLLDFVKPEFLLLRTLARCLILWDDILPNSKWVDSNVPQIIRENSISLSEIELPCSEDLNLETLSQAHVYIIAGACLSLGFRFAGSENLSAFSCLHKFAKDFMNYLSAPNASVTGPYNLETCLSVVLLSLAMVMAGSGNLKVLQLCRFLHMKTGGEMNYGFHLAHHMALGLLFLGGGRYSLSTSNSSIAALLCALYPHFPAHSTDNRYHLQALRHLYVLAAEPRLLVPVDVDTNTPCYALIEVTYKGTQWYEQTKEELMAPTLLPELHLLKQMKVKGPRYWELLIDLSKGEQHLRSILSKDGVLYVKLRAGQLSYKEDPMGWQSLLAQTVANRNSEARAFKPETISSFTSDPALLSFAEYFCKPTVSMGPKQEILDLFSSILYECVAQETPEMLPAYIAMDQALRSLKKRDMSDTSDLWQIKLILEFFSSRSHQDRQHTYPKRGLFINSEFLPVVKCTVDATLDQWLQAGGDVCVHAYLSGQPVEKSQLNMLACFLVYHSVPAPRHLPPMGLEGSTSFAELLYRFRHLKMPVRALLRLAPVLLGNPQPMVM
UniProt Q91Z96: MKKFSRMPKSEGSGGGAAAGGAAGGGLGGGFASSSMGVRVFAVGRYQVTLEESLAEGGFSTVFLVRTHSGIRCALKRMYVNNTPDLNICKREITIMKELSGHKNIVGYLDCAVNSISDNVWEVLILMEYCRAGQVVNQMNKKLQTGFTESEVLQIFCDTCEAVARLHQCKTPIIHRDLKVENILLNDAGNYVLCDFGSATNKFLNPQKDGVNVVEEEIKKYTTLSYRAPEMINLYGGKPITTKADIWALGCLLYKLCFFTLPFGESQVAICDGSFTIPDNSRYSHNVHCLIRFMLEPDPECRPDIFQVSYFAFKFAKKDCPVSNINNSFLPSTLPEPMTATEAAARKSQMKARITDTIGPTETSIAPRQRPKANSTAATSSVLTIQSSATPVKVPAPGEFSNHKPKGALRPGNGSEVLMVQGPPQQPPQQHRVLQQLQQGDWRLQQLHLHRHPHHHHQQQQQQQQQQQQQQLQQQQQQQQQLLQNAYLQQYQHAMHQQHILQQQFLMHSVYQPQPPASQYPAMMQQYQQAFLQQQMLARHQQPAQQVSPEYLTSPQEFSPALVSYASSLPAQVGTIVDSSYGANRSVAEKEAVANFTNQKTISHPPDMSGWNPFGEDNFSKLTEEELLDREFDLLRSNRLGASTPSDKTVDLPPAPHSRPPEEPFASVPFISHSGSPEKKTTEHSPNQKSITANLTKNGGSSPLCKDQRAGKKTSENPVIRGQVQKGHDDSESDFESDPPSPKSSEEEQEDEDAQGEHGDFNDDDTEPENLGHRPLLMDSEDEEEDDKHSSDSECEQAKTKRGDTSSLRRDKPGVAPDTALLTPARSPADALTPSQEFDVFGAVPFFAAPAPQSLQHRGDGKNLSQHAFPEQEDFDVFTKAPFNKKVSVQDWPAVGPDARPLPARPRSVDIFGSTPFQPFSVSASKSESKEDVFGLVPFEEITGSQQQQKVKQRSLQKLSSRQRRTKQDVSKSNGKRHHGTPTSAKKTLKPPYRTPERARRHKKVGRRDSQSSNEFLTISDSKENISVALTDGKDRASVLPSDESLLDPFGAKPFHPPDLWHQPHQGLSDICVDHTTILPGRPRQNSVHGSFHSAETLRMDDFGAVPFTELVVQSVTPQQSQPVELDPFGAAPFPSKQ
UniProt Q8BWW4: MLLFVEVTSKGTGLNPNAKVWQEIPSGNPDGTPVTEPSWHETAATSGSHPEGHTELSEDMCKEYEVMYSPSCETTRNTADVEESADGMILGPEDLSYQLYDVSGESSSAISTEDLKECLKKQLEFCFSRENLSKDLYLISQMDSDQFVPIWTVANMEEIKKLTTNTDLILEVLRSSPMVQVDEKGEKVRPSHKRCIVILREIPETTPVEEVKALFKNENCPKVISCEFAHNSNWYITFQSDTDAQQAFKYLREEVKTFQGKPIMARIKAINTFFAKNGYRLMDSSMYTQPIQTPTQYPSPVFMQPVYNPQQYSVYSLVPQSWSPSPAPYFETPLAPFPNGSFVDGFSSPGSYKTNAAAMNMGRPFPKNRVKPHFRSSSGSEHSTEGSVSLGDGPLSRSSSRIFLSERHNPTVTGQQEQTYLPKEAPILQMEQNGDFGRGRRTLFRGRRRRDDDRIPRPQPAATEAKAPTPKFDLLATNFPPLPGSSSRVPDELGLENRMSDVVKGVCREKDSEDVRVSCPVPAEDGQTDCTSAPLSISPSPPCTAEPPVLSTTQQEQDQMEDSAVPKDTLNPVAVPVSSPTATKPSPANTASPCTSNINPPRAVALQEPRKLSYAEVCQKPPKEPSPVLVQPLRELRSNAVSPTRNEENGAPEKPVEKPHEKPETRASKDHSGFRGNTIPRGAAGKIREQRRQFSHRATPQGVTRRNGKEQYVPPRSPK
LARP4 (Q8BWW4, form named): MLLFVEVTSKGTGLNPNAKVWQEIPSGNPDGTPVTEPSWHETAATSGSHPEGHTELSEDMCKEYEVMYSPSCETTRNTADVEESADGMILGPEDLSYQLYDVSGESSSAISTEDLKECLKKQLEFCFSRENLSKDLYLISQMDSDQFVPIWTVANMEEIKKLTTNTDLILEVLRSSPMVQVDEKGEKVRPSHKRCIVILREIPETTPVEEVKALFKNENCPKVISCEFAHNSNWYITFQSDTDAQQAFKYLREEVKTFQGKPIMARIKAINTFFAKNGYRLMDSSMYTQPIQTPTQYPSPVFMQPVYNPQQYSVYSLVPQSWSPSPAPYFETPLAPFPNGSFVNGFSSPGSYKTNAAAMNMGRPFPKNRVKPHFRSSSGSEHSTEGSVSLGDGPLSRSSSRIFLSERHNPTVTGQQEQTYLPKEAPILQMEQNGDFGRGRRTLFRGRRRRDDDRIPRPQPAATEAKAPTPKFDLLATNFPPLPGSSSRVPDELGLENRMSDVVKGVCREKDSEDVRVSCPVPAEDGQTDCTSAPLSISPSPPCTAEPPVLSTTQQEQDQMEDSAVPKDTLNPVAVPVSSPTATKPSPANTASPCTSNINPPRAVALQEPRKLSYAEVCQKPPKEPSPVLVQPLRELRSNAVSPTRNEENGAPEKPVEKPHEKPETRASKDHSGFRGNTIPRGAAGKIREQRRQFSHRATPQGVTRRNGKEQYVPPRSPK
UniProt Q6A0A2: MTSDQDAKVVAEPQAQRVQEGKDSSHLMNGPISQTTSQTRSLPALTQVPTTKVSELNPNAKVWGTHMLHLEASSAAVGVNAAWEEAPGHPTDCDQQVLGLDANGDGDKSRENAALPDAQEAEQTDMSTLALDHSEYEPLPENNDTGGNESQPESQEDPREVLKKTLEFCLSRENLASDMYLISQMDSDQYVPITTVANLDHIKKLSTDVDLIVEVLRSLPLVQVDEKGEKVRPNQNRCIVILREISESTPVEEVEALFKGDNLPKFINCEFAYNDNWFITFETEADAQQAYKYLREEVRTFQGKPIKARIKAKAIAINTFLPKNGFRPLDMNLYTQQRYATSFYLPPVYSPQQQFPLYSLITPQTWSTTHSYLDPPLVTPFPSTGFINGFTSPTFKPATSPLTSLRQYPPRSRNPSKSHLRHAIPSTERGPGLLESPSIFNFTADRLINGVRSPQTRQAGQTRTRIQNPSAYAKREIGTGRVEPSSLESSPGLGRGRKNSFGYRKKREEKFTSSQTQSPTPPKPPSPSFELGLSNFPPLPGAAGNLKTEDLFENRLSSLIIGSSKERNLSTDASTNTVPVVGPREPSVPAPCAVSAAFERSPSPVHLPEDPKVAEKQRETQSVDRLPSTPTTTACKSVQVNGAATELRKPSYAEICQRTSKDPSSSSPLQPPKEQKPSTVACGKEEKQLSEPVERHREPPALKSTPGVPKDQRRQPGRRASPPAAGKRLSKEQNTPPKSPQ
UniProt P60335: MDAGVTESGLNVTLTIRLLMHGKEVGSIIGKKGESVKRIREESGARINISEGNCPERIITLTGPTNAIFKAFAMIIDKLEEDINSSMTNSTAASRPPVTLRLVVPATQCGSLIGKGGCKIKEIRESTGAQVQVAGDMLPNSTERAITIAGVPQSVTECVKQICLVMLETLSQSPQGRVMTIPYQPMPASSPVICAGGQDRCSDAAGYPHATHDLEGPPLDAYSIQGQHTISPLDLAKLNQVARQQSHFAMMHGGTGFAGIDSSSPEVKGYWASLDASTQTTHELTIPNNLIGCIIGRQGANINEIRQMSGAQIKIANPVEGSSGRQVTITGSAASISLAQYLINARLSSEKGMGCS
UniProt Q61990: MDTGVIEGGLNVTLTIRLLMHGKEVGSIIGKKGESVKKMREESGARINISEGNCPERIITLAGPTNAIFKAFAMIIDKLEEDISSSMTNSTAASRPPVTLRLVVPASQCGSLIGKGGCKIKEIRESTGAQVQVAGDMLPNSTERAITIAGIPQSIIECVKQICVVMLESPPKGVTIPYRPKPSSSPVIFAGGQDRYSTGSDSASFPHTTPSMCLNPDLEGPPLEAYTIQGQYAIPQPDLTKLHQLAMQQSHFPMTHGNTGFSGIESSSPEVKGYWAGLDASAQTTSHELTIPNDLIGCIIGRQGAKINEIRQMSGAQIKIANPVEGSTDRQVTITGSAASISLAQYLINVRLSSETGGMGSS

B1: Otud4 (protein, UniProt B2RRE7 1-1107)
chain: MEAAVGAPDGVDQGGVGPLEDETPMDAYLRKLGLYRKLVAKDGSCLFRAVAEQVLHSQSRHVEVRMACIRYLRENREKFEAFIEGSFEEYLKRLENPQEWVGQVEISALSLMYRKDFVIYQEPNVSPSHVTENNFPEKVLLCFSNGNHYDIVYPITYKDSSAMCQSLLYELLYEKVFKTDVSKIMMGLEASEVAEESNSEISDSEDDSCKSKSTAATDVNGFKPSGSENPKNNGNSADLPLSRKVLKSLNPAVYRNVEYEIWLKSKQAQQKRDYSIAAGLQYEVGDKCHQVRLDHNGKLSNADIHGVHSENGLVLSEELGKKHTPKNLKPPPPESWNTVSGKKMKKPNSGQNFHSDTDYRGPKNLNKPIKAPSALPPRLQHPSSGVRQHAFSSHSTGSQSQKSSSEHKNLSRMPSQITRKPDRERAEDFDHVSRESYYFGLSPEERREKQAIEESRLLYEIQNRDEQAFPALSSSSVSQSPSQNSNACVPRKSSHARDRKGSMRRADAEERKDKDSLRGHTHVDKKPEPSTLEISDDKCTRVSSPSKSKKECPSPVEQKPAEHIPLSNPAPLLVSPEVHLTPAVPSLPATVPAWPSEPTTFGPTGVPAQIPILSVTQTTGPDAAVSQAHLTPSPVPVSIQAVNQPLMPLPQTMSLYQDPLYPGFPCSEKGDRAIAPPYSLCQTGEDLPKDKNILRFFFNLGVKAYSCPMWAPHSYLYPLHQAYMAACRMYPKVPVPVYPQNTWFQEAPPAQSESDCPCTDAHYSLHPEASVNGQMPQAEMGPPAFASPLVIPPSQVSEGHGQLSYQPELESENPGQLLHAEYEESLSGKNMYPQQSFGPNPFLGPVPIAPPFFPHVWYGYPFQGFVENPVMRQNIVLPPDDKGELDLPLENLDLSKECDSVSAVDEFPDARVEGAHSLSAASVSSKHEGRVEQSSQTRKADIDLASGSSAVEGKGHPPTQILNREREPGSAEPEPKRTIQSLKEKPEKVKDPKTAADVVSPGANSVDRLQRPKEESSEDENEVSNILRSGRSKQFYNQTYGSRKYKSDWGSSGRGGYQHVRGEESWKGQPNRSRDEGYQYHRHVRGRPYRGDRRRSGMGDGHRGQHT
B2: Ubap2 (protein, UniProt Q91VX2 1-1132)
chain: MMTSVSNDRCRGAREKPQMPTAHAAQSQKQVVQATAEQMRLAQVIFDKNDSDFEAKVKQLMEVTGKNQDECIVALHDCNGDVNKAINILLEGNSDTTSWETVGGKKKNFGRESSENKENREKRTEREASRGRGTNNRKGRGGNRVREFKGEENGIDCSQGDKPAERGKRARGRGFGRGRGRGTGRFSAQSMGTFNPADYSESMSTDGCGTKLAVWEAAQNGTDEGPEGLAKSHSMSQEPPSKSSYGLKGAWKNSVEEWTTEDWTEDLSETKVFTASSAPAENHVTPGHSIDLVALLHKPAPPTQATEVNSFETSQQQGFGQALVFTNSQHNNQMAPGTANSTSASSYSPQSLSSVLGSGFGELPQSNMVNISNSQILDKLKPPGLSPFPAASSAQQNDTASPPATTAAWDLKPSAPQPSVLSRLDFKSQPEPSPVLSQLSQRQQHQTQAVSVPPPGLESFSSLAKPRESTAGDGPSTVSRLLQLPNMTVENIVSAHQPQPKHIKLPKRRVPPASKVPVSAVEMPGSSDVTGLNVQFGALEFGSEPSLSEFGSAASASENSNQIPISLYPKSLSEPLNASFPMTSAVQSSTYTTSVVTSSTLTSSALSSTSPVTTSSSYDQSSVHTRIAYQSSASPPDSAPGSVANGHGGGRSQHTVDTTSSVPAPKKTDPSALPSVSTLPGPASCTALLPSSAQHTATLPSLTPAAAELSSSPLSQLSSSLSGHQNSMTSAHATRSTSTPHTHASVESTASSAAFSAAATSAPSAPSSGVVLPGSMSTVSSLCLGGTTVSVPSSSTRATALVTSGKAPPNLPQGVPPLLHNQYLVGPGGLLPAYPIYGYDELQMLQSRLPMDYYGIPFAAPTALASRDGNLANNPYSGDVTKFGRGDSASPAPPTTPAQAQQSQSQTHHTAQQPFLNPGLPPGYSYTGLPYYTGVPSAFQYGPTMFVPPTSAKQHGVALSTPPTPFQQASGYGQHAYSTGYDDLTQGTAAGDYTKGGYGGSSQAPNKSTGSGPGKGVSVSSGTGLPDMTGSVYNKTQTFDKQGFHAGTPPPFSLPSALGSTGPLAPAAAPGYAPAPFLHIMPAHQQPHSQLLHHHLQQDAPSGSGQRSQPSSLQPKSQASKPTYGSAPYWTN
B3: Ubap2l (protein, UniProt Q80X50 1-1107)
chain: MMTSVGTNRARGNWEQPQNQNQTQHKQRPQATAEQIRLAQMISDHNDADFEEKVKQLIDITGKNQDECVIALHDCNGDVNRAINVLLEGNPDTHSWEMVGKKKGVSGQKDGGQTESNEEGKENRDRDRDYSRRRGGPPRRGRGASRGREFRGQENGLDGTKSGGPSGRGTDRGRRGRGRGRGSSGRRGGRFSAQGMGTFNPADYAEPANTDDNYGNSSGNTWNNTGHFEPDDGTRLDFIGVEGSNYPRKFETAPGAWRTATEEWGTEDWNEDLSETKIFTASNVSSVPLPAENVTITAGQRIDLAVLLGKTPSSMENDSSNLDPSQAPSLAQPLVFSNSKQNAISQPASGSTFSHHSMVSMLGKGFGDVGEAKGGSTTGSQFLEQFKTAQALAQLAAQHSQSGSTTTSSWDMGSTTQSPSLVQYDLKSANDSTVHSPFTKRQAFTPSSTMMEVFLQEKPPAVATSTAAPPPPSSPLPSKSTSAPQMSPGSSDNQSSSPQPAQQKLKQQKKKTSLTSKIPALAVEMPGSADISGLNLQFGALQFGSEPVLSDYESTPTTSASSSQAPSSLYTSTASESSSTVSSNQSQESGYQSGPIQSTTYTSQNNAQGPLYEQRSTQTRRYPSSISSSPQKDLTQAKNGFSSVQATQLQTTQSVEGATGSAVKSESPSTSSIPSLNETVPAASLLTTANQHSSSLSGLSHTEEIPNTTTTQHSSALSTQQNTLSSSTSSGRTSTSTLLHTSVESEANLHSSSSTFSTTSSTVSAPPPVVSVSSSLNSGSSLGLSLGSNSTVTASTRSSVATTSGKAPPNLPPGVPPLLPNPYIMAPGLLHAYPPQVYGYDDLQMLQTRFPLDYYSIPFPTPTTPLTGRDGSLASNPYSGDLTKFGRGDASSPAPATTLAQPQQNQTQTHHTTQQTFLNPALPPGYSYTSLPYYTGVPGLPSTFQYGPAVFPVAPTSSKQHGVNVSVNASATPFQQPSGYGSHGYNTGVSVTSSNTGVPDISGSVYSKTQQSFEKQGFHSGTPAASFNLPSALGSGGPINPATAAAYPPAPFMHILTPHQQPHSQILHHHLQQDGQTGSGQRSQTSSIPQKPQTNKSAYNSYSWGAN

Target: T1, TENT5C-EGFP (Tent5c-EGFP knock-in) (mouse (endogenous in fetal liver erythroblasts))
Assay: proximity labelling

binding	Molecule
binds	B1
binds	B2
binds	B3

Target: T1, TENT5C-EGFP (Tent5c-EGFP knock-in) (mouse (endogenous in fetal liver erythroblasts))
Assay: proximity labelling
Remark: another data set of the same source

binding	Molecule
binds	Anapc1 (from UniProt P53995 1-1944)
binds	Bmp2k (from UniProt Q91Z96 1-1138)
binds	LARP4 (from UniProt Q8BWW4 1-719)
binds	LARP5 (from UniProt Q6A0A2 1-741)
no binding	PCBP1 (from UniProt P60335 1-356)
no binding	PCBP2 (from UniProt Q61990 1-362)
